± gives the standard deviation of the averaged measurements. Most values lie at the floor of the assay. Slopes are relative: functional sequences can read slightly below zero.

The test system of this series is Saccharomyces cerevisiae PS128 hsf1 delta, HSF1(1-493) fusion. Kind of series: growth estimate (transactivation domain function in HSF1 fusion, heat-shock survival) (a.u. (slope of normalised read count over time)); higher = stronger growth at 37°C, i.e. more transactivation activity. The settings on record: library: random library.
On to SCCRAGWGCLVWQRSLAGHH, for which the growth estimate is under -0.25.
On to PLSI, for which the growth estimate is under -0.25.
For HPWALS, the growth estimate was under -0.25.
As to RTRMSLRILIYTQCTSSFGS, the growth estimate is under -0.25.
As to WSEYPVRGPLSKHARLLVDR, the growth estimate was under -0.25.
For the substance LWPRHNRVDAKSSLLLVACV, the growth estimate is under -0.25.
With WRKISLLTPLSQVVGGGCPG the figure was under -0.25; with LIPRSLDAYFNL, -0.0941.
With PKFKSILRMVNINRRELKIH, the growth estimate was under -0.25.
On to CRIQGSPLPRRSLIVNTLCA, for which the growth estimate is under -0.25.
For ERQTPTANRFSIVKRMVGNA, the growth estimate was under -0.25.
As for GGGLVCGP, the growth estimate is under -0.25.
With PRTVSVNRYPDSIGRMVSDA the figure was under -0.25.
Turning to SQCIICCSGG, the growth estimate is under -0.25.
As to TGPNIQAVL, the growth estimate is under -0.25.
As for RPTYIRLGISAC, the growth estimate was under -0.25.
As to QPVRLRSPS, the growth estimate was under -0.25.
For the substance TSNQQHRDMRRNDCITLGRQ, the growth estimate was under -0.25.
Take LGAMHADGSAAFKALSRSGP: the growth estimate was under -0.25.
With MGLFSFAPV, the growth estimate is under -0.25.
In the case of LFEFSLVGRVAVTKVTNRVT, the growth estimate was under -0.25.
VQPG: the growth estimate is under -0.25.
With SCFED, the growth estimate is under -0.25.
As to YYWSACRSLRPPAAQNAFRT, the growth estimate was under -0.25.
Regarding TWALC, the growth estimate was under -0.25.
To VPSGQMANDFSNEPHANW belongs under -0.25; to VCVYATGEMTKY, under -0.25.
Consider GSCRPGLR, for which the growth estimate was under -0.25.
For THMSQALVQAPTDRYAFNAG, the growth estimate was under -0.25.
Regarding YGAL, the growth estimate is under -0.25.
With QLRSDRVQPALRVTVHKWRR, the growth estimate was under -0.25.
Turning to GGNPHRQISSPYRTLMAVRG, the growth estimate was under -0.25.
As for NGKRRH, the growth estimate is under -0.25.
Consider SSLIACPSCDRFRLALDRTN, for which the growth estimate was under -0.25.
With ITRLRAGYMGVHSPEGPFVC the figure was under -0.25; with EVTP, under -0.25; with ATLRHSRSETTADRPHQPGM, under -0.25.
With IVAT, the growth estimate was under -0.25.
For CTMK, the growth estimate is under -0.25.
As for QRFLIRRRDDRRGNANRISF, the growth estimate was under -0.25.
To GLWFGQRPQRLIRGETGRSA belongs under -0.25.
For the substance GDRTDRSSRLSASFNPA, the growth estimate is under -0.25.
Turning to ERVSESRVKSRDVVGVLHSP, the growth estimate was under -0.25.
Consider STKGCRQLHSKCEFAQPTQG, for which the growth estimate was under -0.25.
Regarding RCLSVSPAANTCDSVLDNRE, the growth estimate was under -0.25.
To GTNPVDHSLGVSRSNTALRR belongs -0.246; to LGGSGVEVKFTQFTQVAV, under -0.25; to RSPGRE, under -0.25.
RAVISVPRGIGMVGGPACRG: the growth estimate is under -0.25.
Turning to RKGLGGGLGLGKRIQSIASG, the growth estimate is under -0.25.
Regarding RNSCAGTRPIKIAFSQGLDA, the growth estimate is under -0.25.
To MVIPGTIRP belongs under -0.25; to RHS, under -0.25.
Take GLVEVSRSPDAGDLGVG: the growth estimate is under -0.25.
With VLRGLNGP, the growth estimate is under -0.25.
For NPFKEIPV, the growth estimate was under -0.25.
With IQAYTSGHRSGRDCWRSDAV, the growth estimate is under -0.25.
As for TPSRKMAAHLSSRRGLSGTK, the growth estimate is under -0.25.
To WSLEDFCLSLVFKSC belongs under -0.25; to VVMGAGA, -0.248; to QVESVKVRDKYG, under -0.25.
For the substance LQTLASVGQQNRFFPRAYID, the growth estimate was under -0.25.
As to TLNS, the growth estimate is -0.239 ± 0.016.
In the case of CRRWRSSAATV, the growth estimate was under -0.25.

(Values after the supplement of paper PMC5949888.)
